47 sequences from patent publication US5525495 can be followed below.

Sequences of proteins named here, by UniProt entry; tags and fusion partners are left off. A line that says so, or that is headed by a name, gives the form on record, which may keep a tag or linker.
UniProt Q12926, other isoform, or with tags, fused parts or gaps: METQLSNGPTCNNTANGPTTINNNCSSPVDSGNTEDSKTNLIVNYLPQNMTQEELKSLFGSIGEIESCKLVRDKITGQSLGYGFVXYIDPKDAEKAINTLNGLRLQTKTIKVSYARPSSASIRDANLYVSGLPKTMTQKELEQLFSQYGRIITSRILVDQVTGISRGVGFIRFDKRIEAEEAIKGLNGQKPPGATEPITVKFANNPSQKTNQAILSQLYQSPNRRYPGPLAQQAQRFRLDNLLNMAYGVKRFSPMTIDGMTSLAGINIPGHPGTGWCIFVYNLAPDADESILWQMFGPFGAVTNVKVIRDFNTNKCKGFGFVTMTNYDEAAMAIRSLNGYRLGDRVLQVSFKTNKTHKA

Construct, isoform or probe ends are uncertain for at least one entry. Where cells or extracts were used, other partners may take part.

This data set deals with Hel-N1 (Homo sapiens) (UniProt Q12926). The data set is described as follows: SELEX. As to conditions: protein in a lysate after overexpression.
Where [1] appears, read: selected from brain mRNA 3'-UTR library.

Take “AACCAUUUUCAUAUAAUUUUAUCAUACUGUAUCUGCAAACUUUUAUGUCCUGCUUUUCCCUUGAAUAUUGUGUCAUAAGCAUUUAAAAAAA [GRP-23]”: the selection result under setting [1] was “selected”.
“AACUACCGGAGUACAGAUUUUUUUA [FIG. 3 selected RNA]”: where the note is “3 rounds”, the selection result is “selected”.
For “ACAAAUGGUAGGCAAAAAAAGAUAUCGCAGUAAGGCCCUCCGUGAUUCACUUCAUAUGUUUAUGUAUUGGUUGAAUUAUUUAUGUAAAAAAAAAAAAAAAAA [GRP-1]”, the selection result under setting [1] is on record as “selected”.
Turning to “ACACCCUUUUUAGUUCCUGUAUUU [FIG. 3 selected RNA]”, under “3 rounds”, the selection result is listed as “selected”.
For “ACUGUUUUCCCACCAGCCUGUUGGCGAAGUUGCUGCUCCGGCAUUCAGUACCUGCUUCUUCCUGUGAAAUAAAGUUAGUUUCUAUUUUAUGUUAAAAAAAAAAAAAAAAA [GRP-9 (ACK tyrosine kinase)]”, the selection result under setting [1] was “selected”.
Turning to “AGACGCAAUUAAUGAUUUGUUUUUA [FIG. 3 selected RNA]”, the selection result (3 rounds) is on record as “selected”.
In the case of “AGGCAAAAAAGAUAUGCAGGAAGGCCCUCCGAGAUUCACUUCAUAUGUUUAUGUAUUGGUUGAAUUAUUUUUGUAAUUUUAAAAAAAAAAAAAAAAAAAAAAAAAAAAAAAAAA [GRP-14']”, the selection result under setting [1] is recorded as “selected”.
For “AGUCAGUUUUAUUUUAGGCCUUCC [FIG. 11 Hel-N1 selected RNA]”, the selection result (high salt and urea washes) was “selected”.
For “AUCAUAAAUUCAGUGUCAUUUUUCU [FIG. 3 selected RNA]”, the selection result (3 rounds) is reported as “selected”.
Regarding “AUGAGCUUUACUCAAUAAAGCUGGCUUUCCCUGCAAAAAAAAAAAAAAAAAAAAAAA [GRP-3]”, the selection result under setting [1] is “selected”.
Consider “AUGAUUUAGAUUUUCGCACAUUUCA [FIG. 3 selected RNA]”, for which the selection result (3 rounds) is listed as “selected”.
Regarding “AUGGACUAUCAGAAAUAGACACAGAUUUGGGUCACAAAGCUGGCUCUGUAUUUGCAUUUUAUUUUUGUGUUCUUGUCAGUUUGGGAAUGAUUAAUAUUAAAAAAAAAAAAAAA [GRP-14]”, the selection result under setting [1] is “selected”.
On to “AUGUCUAACUUUUAAUAUGCUUGUUCAGCUCUAAUAAAGUAAUAAAGCUUGGUUGUCAGUAUAAAAAAAAAAAAAAAAAAAAA [GRP-2]”, for which the selection result under setting [1] is on record as “selected”.
The same measure, in the same setting: in the case of “AUGUCUUGAUGUUAUGCAGGAAGUACAGACAUACUUUAAAUUUUGUUAUGAAAAAAAAAAAAAAAAAAAAAAAAAAAAAAAAAAA [GRP-5']” it was “selected”.
On to “AUUGACUUCGUUAUUGUUUUUAUUG [FIG. 3 selected RNA]”, for which, where the note is “3 rounds”, the selection result is “selected”.
Consider “AUUUACUUUAGACACUUUAAUUUG [FIG. 11 Hel-N1 selected RNA]”, for which the selection result (high salt and urea washes) was “selected”.
“AUUUCCGUUUUGCCACUUUCUUUUC [FIG. 11 Hel-N1 selected RNA]”: the selection result (high salt and urea washes) is “selected”.
Take “AUUUCUCAUUUAACGUCUCUCCUUU [FIG. 3 selected RNA]”: the selection result (3 rounds) is “selected”.
In the case of “AUUUUUAAUUUUAAUUUUAGCUGUA [FIG. 11 Hel-N1 selected RNA]”, the selection result (high salt and urea washes) was “selected”.
Turning to “CAAGGAGCAUAAGAGAUGUUCUCGUAGCUCUGCGUUGUGUGAAAUGUCCAUCUUAGUUUUGUUAAAAAAAAAAAAAAAAAAAAAAAAAAAAA [GRP-5]”, the selection result under setting [1] is “selected”.
As to “CAAUCCUGAUGCAAGAGAAGCCAAUGAUGGGCUCAUUUCGAACUGUGUUAUAUUAUUUAGGAAAAAAAAAAAAAAA [GRP-8']”, under setting [1], the selection result is recorded as “selected”.
Take “CACAACCCUAACUUUCAUUUGCUUU [FIG. 3 selected RNA]”: where the note is “3 rounds”, the selection result is “selected”.
As to “CAUGUUUUCCCACCAGCCUGUUGGCGAAGUUGCUGCUCCGGCAUUCAGUACCUGCUUCUUCCUGUGAAAUAAAGUUAGUUUCUAUUUUAUGUUAAAAAAAAAAAAAAAA [GRP-6' (ACK tyrosine kinase)]”, the selection result under setting [1] is “selected”.
For “CCCCAAUUUUAUUGUUUCAUUUUAA [FIG. 11 Hel-N1 selected RNA]”, the selection result (high salt and urea washes) is “selected”.
With “CCGUUCCAUGAGCCACUCAAUAUCCUUCCAAAUAAUUUUUUUCUAAGUUAACCAUUCUUUUGUUUUUCUAAGUUAACCAUUCUUUUGUUGUUUGAAAAAAAAAAAAAAA [GRP-7]”, the selection result under setting [1] was “selected”.
“CUAAUUUCCGAUAUUAAAGCUUAUUA [FIG. 3 selected RNA]”: the selection result (3 rounds) is listed as “selected”.
In the case of “GAAUGGCAUUUAUUUUGACGAA [FIG. 11 Hel-N1 selected RNA]”, the selection result (high salt and urea washes) is “selected”.
Turning to “GGCUGCCUUAUAAUUUUUGUCUCUUUCUUUCCCACCUUUAAUUGUCAAUGGUUAAAAAAAUGCUGUUUUCUGAUAUUAAAUUUUUAUUAGUGCAUACCUUAAAAAAAAA [GRP-16]”, the selection result under setting [1] is “selected”.
“GGGCUAGGCUUAUCCUCCUUUCC [FIG. 3 selected RNA]”: the selection result (3 rounds) is given as “selected”.
Consider “GGUAGGCAAAAAAAGAUAUCGCAGGAAGGCCCUCCGUGAUUCACUUCAUAUGUUUAUGUAUUGGUUGAAUUAUUUUUGUAAUUUUAAAAAAAAAAAAAAAAAAAAAAAA [GRP-8]”, for which the selection result under setting [1] is “selected”.
Take “GUGCAGUGUACCACAUUUUCUUUAUCCAGUCUAUCAUUGAUGGACAUUAAAGGUUGAUUGAUGCAAAAAAAAAAAAAAAAAAA [GRP-21]”: the selection result under setting [1] is reported as “selected”.
For the sequence “GUUUGUUGUUUUUCUAUUAAACUGCAUAAAGAAACGGCAAAAAAAAAAAAAAAAAAA [GRP-1']”, the selection result under setting [1] is listed as “selected”.
For “UACUUUCGGUACUAAAAUCGAUCAG [FIG. 3 selected RNA]”, the selection result (3 rounds) is recorded as “selected”.
The same measure, in the same setting: in the case of “UAGCUCGGACAUUUAUUUUUAUUU [FIG. 3 selected RNA]” it was “selected”.
In the case of “UAUAUGCGUUAAUAUUUCUUUCCAUCUGUGGAUUGUUCUGUCACUUAUUUUCUUUAAUAAAUGGGUUUCUGAAAAAAAAAAAAAAAAAAAAAAAAAA [GRP-10']”, the selection result under setting [1] is reported as “selected”.
Same read-out and setting: as for “UAUCAAAUACCAAGUUUAUUUCACAAACACUAGGAAGAUGGGUUGAGGGUGGG [GRP-15']”, the entry is “selected”.
“UCAGUGGCAUCUCUUUCUUUACUUU [FIG. 3 selected RNA]”: for the setting “3 rounds”, the selection result is “selected”.
Same read-out and setting: as for “UCAGUUAAACGUGUAAACCUUUUAA [FIG. 3 selected RNA]”, the entry is “selected”; as for “UCAUAGCACCACCUCACCCUUUUUA [FIG. 3 selected RNA]”, “selected”; as for “UCCAGUAACCCCACCUCCUCUUUUU [FIG. 3 selected RNA]”, “selected”.
In the case of “UCCUUUUUGUACCACUCUCAGUUGU [FIG. 3 selected RNA]”, the selection result (3 rounds) is recorded as “selected”.
As to “UCUUGAUGUUAUGCAAGUACAGACGUACUUUAAAUUUUUGUUAUGAAAAAAAAAA [GRP-7']”, under setting [1], the selection result is given as “selected”.
Consider “UGACCGAUACACAUUCUUUUAUUUA [FIG. 3 selected RNA]”, for which the selection result (3 rounds) is “selected”.
As to “UUAGGUUUCUUUUUAUUUGAGCAUA [FIG. 3 selected RNA]”, for the setting “3 rounds”, the selection result is given as “selected”.
Consider “UUAUUUAUUUGCGUCUCCUUUAUUA [FIG. 3 selected RNA]”, for which, for the setting “3 rounds”, the selection result is reported as “selected”.
“UUCCAUGCCCUGUUUUAUUUUCUACUUUAUUGCCCCUGUUCCCCAGGCACAAAGCUAUGUGCUGACAUACAUUUGGCUCUCAAUAAUACUUGUCAUAUUUGAAAAAAAAAAAAAA [GRP-24]”: the selection result under setting [1] is given as “selected”.
For “UUGAUUUUCGCGCCCGCCGCCUUAG [FIG. 3 selected RNA]”, for the setting “3 rounds”, the selection result is “selected”.
